Patent US20220213467A1
No constants are given. Whether binding was seen depends on the method and setting. Some entries that bind do so weakly or less than the wild type. Tags and fused reporters may be left off the sequences shown.

Amino acid sequences for entries named in this document (tags omitted). A change or cut given only in a name is not applied to a line headed by its entry.
UniProt P10928: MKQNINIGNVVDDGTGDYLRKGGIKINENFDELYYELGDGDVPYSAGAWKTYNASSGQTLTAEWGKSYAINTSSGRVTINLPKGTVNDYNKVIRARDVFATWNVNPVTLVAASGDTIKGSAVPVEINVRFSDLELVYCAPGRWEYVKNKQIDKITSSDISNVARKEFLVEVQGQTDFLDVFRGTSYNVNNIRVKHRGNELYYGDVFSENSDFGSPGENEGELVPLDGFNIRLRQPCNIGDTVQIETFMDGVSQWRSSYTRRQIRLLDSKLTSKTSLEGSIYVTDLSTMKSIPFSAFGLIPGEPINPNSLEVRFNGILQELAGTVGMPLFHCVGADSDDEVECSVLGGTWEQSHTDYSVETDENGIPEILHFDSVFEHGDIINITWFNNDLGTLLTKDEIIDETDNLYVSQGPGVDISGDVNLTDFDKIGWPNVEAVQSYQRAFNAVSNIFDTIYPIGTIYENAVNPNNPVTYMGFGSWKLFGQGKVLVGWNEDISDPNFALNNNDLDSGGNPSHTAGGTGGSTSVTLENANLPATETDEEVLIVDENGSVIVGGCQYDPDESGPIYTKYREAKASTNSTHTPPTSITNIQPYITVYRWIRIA

Target: T1, gp11 fused to an HA peptide (gp11-HA), bacteriophage T4 gene product 11 (bacteriophage T4) (UniProt P10929)
T1 sequence: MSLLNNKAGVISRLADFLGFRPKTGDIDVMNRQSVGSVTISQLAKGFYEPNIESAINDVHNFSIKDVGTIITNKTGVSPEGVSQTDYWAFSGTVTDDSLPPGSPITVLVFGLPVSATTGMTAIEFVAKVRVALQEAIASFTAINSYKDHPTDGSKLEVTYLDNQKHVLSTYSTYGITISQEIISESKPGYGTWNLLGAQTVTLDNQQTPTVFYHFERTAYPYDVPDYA
Assay: on-chip cell-free expression, capture on a gp11-HA / anti-HA surface

**Q.** For “T4 wedge, gp10-7-8-6 complex (bacteriophage T4) (from UniProt P10928 1-602; P19061 1-1032; P19062 1-334; P19060 1-660)”, which binding is on record?
**A.** binds
